# The other results are listed elsewhere or left out.
# B1: CD4 (Rattus norvegicus), P05540 (protein)
# chain: MCRGFSFRHLLPLLLLQLSKLLVVTQGSTSITAYKSEGESAEFSFPLNLGEESLQGELRWKAEKAPSSQSWITFSLKNQKVSVQKSTSNPKFQLSETLPLTLQIPQVSLQFAGSGNLTLTLDRGILYQEVNLVVMKVTQPDSNTLTCEVMGPTSPKMRLILKQENQEARVSRQEKVIQVQAPEAGVWQCLLSEGEEVKMDSKIQVLSKGLNSGGGSGGGTGGGDLAPQMLRELQETNAALQDVRELLRQQVKEITFLKNTVMECDACGLDRNLPPLAPLGPHPETLVKVKDAEDQLGARVGYIELDLNSGKILESFRPEERFPMMSTFKVLLCGAVLSRIDAGQEQLGRRIHYSQNDLVEYSPVTEKHLTDGMTVRELCSAAITMSDNTAANLLLTTIGGPKELTAFLHNMGDHVTRLDRWEPELNEAIPNDERDTTMPVAMATTLRKLLTGELLTLASRQQLIDWMEADKVAGPLLRSALPAGWFIADKSGAGERGSRGIIAALGPDGKPSRIVVIYTTGSQATMDERNRQIAEIGASLIKHW
# Experiments:
# Assay in all cases: glycan array binding signal (z-score within array); higher = stronger binding
# Settings in all cases: glycan notation: IUPAC condensed, linker removed
# [1] = target: Gal3S(b1-4)Glc
# Outline: (§1)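 The binding signal is a Z-score computed within each array and averaged over linkers. Arrays of the same protein sequence at different concentrations or buffers were also averaged together. Data originate from 3228 arrays in the Consortium for Functional Glycomics database, kept only where the protein sequence was available.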
# [2] = target: Gal3S(b1-4)Glc6S
# Outline: as §1
# [3] = target: Gal3S(b1-4)GlcNAc
# Outline: as §1
# [4] = target: Gal3S(b1-4)[Fuc(a1-3)]Glc6S
# Outline: as §1
# [5] = target: Gal3S(b1-4)[Fuc(a1-3)]GlcNAc
# Outline: as §1
# [6] = target: Gal3S(b1-4)[Fuc(a1-3)]GlcNAc6S
# Outline: as §1
# [7] = target: Gal3S4S(b1-4)GlcNAc
# Outline: as §1
# [8] = target: Gal3S6S(b1-4)GlcNAc
# Outline: as §1
# [9] = target: Gal3S6S(b1-4)GlcNAc6S
# Outline: as §1
# [10] = target: Gal4S(b1-4)GlcNAc
# Outline: as §1
# [11] = target: Gal4S6S(b1-4)GlcNAc
# Outline: as §1
# [12] = target: Gal6P(b1-4)GlcNAc
# Outline: as §1
# [13] = target: Gal6S(b1-3)GlcNAc
# Outline: as §1
# [14] = target: Gal6S(b1-3)GlcNAc6S
# Outline: as §1
# [15] = target: Gal6S(b1-4)Glc
# Outline: as §1
# [16] = target: Gal6S(b1-4)Glc6S
# Outline: as §1
# [17] = target: Gal6S(b1-4)GlcNAc
# Outline: as §1
# [18] = target: Gal6S(b1-4)GlcNAc6S
# Outline: as §1
# [19] = target: GalNAc(a1-3)Gal
# Outline: as §1
# [20] = target: GalNAc(a1-3)GalNAc
# Outline: as §1
# [21] = target: GalNAc(a1-3)GalNAc(a1-3)Gal(a1-4)Gal(b1-4)GlcNAc
# Outline: as §1
# [22] = target: GalNAc(a1-3)GalNAc(b1-3)Gal(a1-4)Gal(b1-4)Glc
# Outline: as §1
# [23] = target: GalNAc(b1-3)Gal
# Outline: as §1
# [24] = target: GalNAc(b1-3)Gal(a1-4)Gal(b1-4)GlcNAc
# Outline: as §1
# [25] = target: GalNAc(b1-3)Gal(a1-4)Gal(b1-4)GlcNAc(b1-3)Gal(b1-4)Glc
# Outline: as §1
# [26] = target: GalNAc(b1-3)Gal(a1-6)Gal(b1-4)Glc
# Outline: as §1
# [27] = target: GalNAc(b1-3)GalNAc
# Outline: as §1
# [28] = target: GalNAc(b1-3)GlcNAc
# Outline: as §1
# [29] = target: GalNAc(b1-4)Gal(b1-4)Glc
# Outline: as §1
# [30] = target: GalNAc(b1-4)GlcNAc
# Outline: as §1
# [31] = target: GalNAc(b1-4)GlcNAc(b1-2)Man
# Outline: as §1
# [32] = target: GalNAc(b1-4)GlcNAc(b1-2)Man(a1-3)[GalNAc(b1-4)GlcNAc(b1-2)Man(a1-6)]Man(b1-4)GlcNAc(b1-4)GlcNAc
# Outline: as §1
# [33] = target: GalNAc(b1-4)GlcNAc(b1-3)GalNAc(b1-4)GlcNAc
# Outline: as §1
# [34] = target: GalNAc(b1-4)GlcNAc6S
# Outline: as §1
# [35] = target: GalNAc(b1-6)GalNAc
# Outline: as §1
# [36] = target: GalNAc3S(b1-4)GlcNAc
# Outline: as §1
# [37] = target: GalNAc3S(b1-4)GlcNAc3S
# Outline: as §1
# [38] = target: GalNAc3S(b1-4)[Fuc(a1-3)]GlcNAc
# Outline: as §1
# [39] = target: GalNAc4S6S(b1-4)GlcNAc
# Outline: as §1
# [40] = target: GalNAc6S(b1-4)GlcNAc
# Outline: as §1
# [41] = target: Glc(a1-4)Glc
# Outline: as §1
# [42] = target: Glc(a1-4)Glc(a1-4)Glc(a1-4)Glc
# Outline: as §1
# [43] = target: Glc(a1-6)Glc(a1-6)Glc
# Outline: as §1
# [44] = target: Glc(a1-6)Glc(a1-6)Glc(a1-6)Glc
# Outline: as §1
# [45] = target: Glc(b1-4)Glc
# Outline: as §1
# [46] = target: Glc(b1-6)Glc
# Outline: as §1
# [47] = target: GlcA(b1-3)Gal
# Outline: as §1
# [48] = target: GlcA(b1-3)GlcNAc
# Outline: as §1
# [49] = target: GlcA(b1-6)Gal
# Outline: as §1
# [50] = target: GlcA3S(b1-3)Gal(b1-4)GlcNAc(b1-2)Man
# Outline: as §1
# [51] = target: GlcA3S(b1-3)Gal(b1-4)GlcNAc(b1-3)Gal(b1-4)Glc
# Outline: as §1
# [52] = target: GlcNAc(a1-3)Gal(b1-4)GlcNAc
# Outline: as §1
# [53] = target: GlcNAc(a1-4)Gal(b1-3)GlcNAc
# Outline: as §1
# [54] = target: GlcNAc(a1-4)Gal(b1-4)GalNAc
# Outline: as §1
# [55] = target: GlcNAc(a1-4)Gal(b1-4)GlcNAc
# Outline: as §1
# [56] = target: GlcNAc(a1-4)Gal(b1-4)GlcNAc(b1-3)Gal(b1-4)Glc
# Outline: as §1
# [57] = target: GlcNAc(a1-4)Gal(b1-4)GlcNAc(b1-3)Gal(b1-4)GlcNAc
# Outline: as §1
# [58] = target: GlcNAc(a1-4)Gal(b1-4)GlcNAc(b1-3)Gal(b1-4)GlcNAc(b1-3)Gal(b1-4)GlcNAc
# Outline: as §1
# [59] = target: GlcNAc(a1-4)Gal(b1-4)GlcNAc(b1-3)Gal(b1-4)[Fuc(a1-3)]GlcNAc(b1-3)Gal(b1-4)[Fuc(a1-3)]GlcNAc
# Outline: as §1
# [60] = target: GlcNAc(a1-6)Gal(b1-4)GlcNAc
# Outline: as §1
binder,measurement,setting,value
B1,glycan array binding signal (z-score),[1],0.064
same,glycan array binding signal (z-score),[2],0.805
same,glycan array binding signal (z-score),[3],-0.806
same,glycan array binding signal (z-score),[4],3.99
same,glycan array binding signal (z-score),[5],0.693
same,glycan array binding signal (z-score),[6],1.69
same,glycan array binding signal (z-score),[7],-0.441
same,glycan array binding signal (z-score),[8],-0.623
same,glycan array binding signal (z-score),[9],-0.506
same,glycan array binding signal (z-score),[10],-0.575
same,glycan array binding signal (z-score),[11],1.37
same,glycan array binding signal (z-score),[12],-1.27
same,glycan array binding signal (z-score),[13],-0.837
same,glycan array binding signal (z-score),[14],-0.074
same,glycan array binding signal (z-score),[15],1.31
same,glycan array binding signal (z-score),[16],0.205
same,glycan array binding signal (z-score),[17],0.34
same,glycan array binding signal (z-score),[18],-1.7
same,glycan array binding signal (z-score),[19],-0.574
same,glycan array binding signal (z-score),[20],-0.61
same,glycan array binding signal (z-score),[21],-1.17
same,glycan array binding signal (z-score),[22],1.32
same,glycan array binding signal (z-score),[23],0.696
same,glycan array binding signal (z-score),[24],0.189
same,glycan array binding signal (z-score),[25],0.231
same,glycan array binding signal (z-score),[26],0.097
same,glycan array binding signal (z-score),[27],-0.004
same,glycan array binding signal (z-score),[28],0.701
same,glycan array binding signal (z-score),[29],-0.645
same,glycan array binding signal (z-score),[30],0.66
same,glycan array binding signal (z-score),[31],0.458
same,glycan array binding signal (z-score),[32],0.941
same,glycan array binding signal (z-score),[33],-0.075
same,glycan array binding signal (z-score),[34],-0.666
same,glycan array binding signal (z-score),[35],-0.406
same,glycan array binding signal (z-score),[36],-0.999
same,glycan array binding signal (z-score),[37],-0.54
same,glycan array binding signal (z-score),[38],0.419
same,glycan array binding signal (z-score),[39],-0.505
same,glycan array binding signal (z-score),[40],-0.714
same,glycan array binding signal (z-score),[41],-0.04
same,glycan array binding signal (z-score),[42],-0.256
same,glycan array binding signal (z-score),[43],-0.167
same,glycan array binding signal (z-score),[44],-0.081
same,glycan array binding signal (z-score),[45],-0.504
same,glycan array binding signal (z-score),[46],0.392
same,glycan array binding signal (z-score),[47],1.33
same,glycan array binding signal (z-score),[48],0.12
same,glycan array binding signal (z-score),[49],-0.548
same,glycan array binding signal (z-score),[50],0.355
same,glycan array binding signal (z-score),[51],-0.053
same,glycan array binding signal (z-score),[52],-1.32
same,glycan array binding signal (z-score),[53],-0.079
same,glycan array binding signal (z-score),[54],-1.38
same,glycan array binding signal (z-score),[55],-0.451
same,glycan array binding signal (z-score),[56],-1.51
same,glycan array binding signal (z-score),[57],-0.192
same,glycan array binding signal (z-score),[58],-0.936
same,glycan array binding signal (z-score),[59],0.256
same,glycan array binding signal (z-score),[60],-0.632

# Rewritten with tabs: part of the list above.
binder	measurement	setting	value
B1	glycan array binding signal (z-score)	[5]	0.693
same	glycan array binding signal (z-score)	[6]	1.69

# Reference: the supplement of paper PMC8728848
